# In PubChem BioAssay AID540256 (National Center for Advancing Translational Sciences (NCATS), 2011):
# In all, about 300,000 compounds went through this assay and about 3,700 (1.2%) were called active. Inconclusive means that the source gave no clear call. Such entries were picked first, then a sample of the others. Calls follow the shape of the full dose curve; tested in HEK293 cells. Where the call is inconclusive, the potency comes from a doubtful curve fit.
# Experiment: qHTS for Inhibitors of binding or entry into cells for Lassa Virus; also: nearly all actives have a fitted effect of over 50% in size
# Settings: Lassa virus pseudotype entry inhibition, cell reporter; activity change, negative = inhibition: at 37.9 µM (top of the series) unless noted
# % is scaled to controls: 0 for no effect and ±100 for the full control effect; potency is read from the fitted curve at half-maximal effect.
Compound,Potency,"activity change, negative = inhibition"
Cc1ccc(C(=O)NNC(=O)c2ccoc2C)s1,"inconclusive: 1.58 µM [activator, partial curve, poor fit]",–
COc1ccc(NC(=O)COc2ccc(/C=N/O)cc2OC)cc1,–,inactive: 21.9%
COc1ccc(CNC(=O)COC(=O)c2c(C)nn(-c3ccccc3)c2C)cc1OC,"inconclusive: 22.4 µM [inhibitor, single point]",–
Cc1ccc(C)c(NC(=O)c2cnn(-c3cccc(F)c3)c2C2CCN(C(=O)OC(C)(C)C)CC2)c1,"inconclusive: 3.16 µM [inhibitor, full curve, poor fit]",–
CCOc1ccc(NS(=O)(=O)c2ccc(-c3cc(C)no3)s2)cc1,"inconclusive: 7.94 µM [inhibitor, partial curve, poor fit]",–
COc1ccc(/C=N/Nc2ccccn2)cc1O,"inconclusive: 35.5 µM [inhibitor, single point]",–
Cc1ccc(NC(=O)Cn2nnc(C(=O)NCc3ccccc3)c2N)cc1C,–,inactive: 1.67%
COc1ccc(CCNC(=O)c2cnc3ccccc3n2)cc1,–,inactive: -27.5%
O=C(Cn1cc(SCc2c(F)cccc2Cl)c2ccccc21)N1CCCCCC1,"inconclusive: 8.91 µM [inhibitor, partial curve, poor fit]",–
CN(C)CCOC1c2ccccc2CCc2ccc3ccccc3c21 (stereo not given),"inconclusive: 14.1 µM [inhibitor, single point]",–
O=C(CN1CCC(NC(=O)Cc2ccccc2)CC1)Nc1ccccc1Br,"inconclusive: 20.6 µM [inhibitor, single point]",–
COc1cccc(NC(=O)CN(C)C(C)C(=O)Nc2cc([N+](=O)[O-])ccc2Cl)c1 (stereo not given),"inconclusive: 12.6 µM [inhibitor, single point]",–
Cc1ccc(/C=C2/NC(=O)N(Cc3ccc(Br)cc3)C2=O)o1,"inconclusive: 35.5 µM [inhibitor, single point]",–
COc1ccc(CC(=O)N2CCc3cc(OC)c(OC)cc3C2COc2ccc(OC)cc2)cc1 (stereo not given),"inconclusive: 0.562 µM [inhibitor, full curve, poor fit]",–
COc1ccc(CNC(=O)C(=O)NCCC2CCCCN2S(=O)(=O)c2cccs2)cc1 (stereo not given),"inconclusive: 12.6 µM [inhibitor, single point]",–
CSCCC(NC(=O)c1cc([N+](=O)[O-])ccc1Cl)C(=O)O (stereo not given),–,inactive: 1.37%
CN(C)C(=O)/C(=C/c1ccc(-c2cccc([N+](=O)[O-])c2)o1)NC(=O)c1ccccc1,"inconclusive: 2.24 µM [inhibitor, partial curve, poor fit]",–
CC1CCN(c2oc(-c3ccco3)nc2S(=O)(=O)c2ccccc2)CC1,"inconclusive: 11.2 µM [inhibitor, partial curve, poor fit]",–
O=C(Oc1cccc(N2C(=O)C3C4c5ccccc5C(c5ccccc54)C3C2=O)c1)c1ccco1 (stereo not given),active: 8.91 µM,–
CCOc1ccc(S(=O)(=O)N2CCCCC2)cc1NC(=O)Cc1ccsc1,"inconclusive: 20 µM [inhibitor, single point]",–
CCOC(=O)C1=CN(c2cccc(F)c2)C=C(C(=O)OCC)C1c1cc(OC)c(O)c([N+](=O)[O-])c1,"inconclusive: 29.1 µM [inhibitor, single point]",–
CCN(CC)CCCNC(=O)c1oc2ccc(S(=O)(=O)N3CC(C)CC(C)C3)cc2c1C (stereo not given),"inconclusive: 35.5 µM [inhibitor, single point]",–
CCOC(=O)c1sc(NC(=O)CSc2nnc(C)s2)c(C(=O)OCC)c1C,–,inactive: 2.89%
O=C(CNC(=O)c1cccc(F)c1)N/N=C/c1cc(Br)ccc1OC(=O)/C=C/c1ccco1,"inconclusive: 7.3 µM [inhibitor, partial curve, poor fit]",–

Compound,Potency,"activity change, negative = inhibition"
NC(=O)c1c(NC(=O)C2CCCO2)sc2c1CCCC2 (stereo not given),–,inactive: 13.1%
O=C(Nc1ccc2nn(-c3ccccc3)nc2c1)c1cc2ccccc2o1,–,inactive: -8.33% [at 46.1 µM]
O=C(N/N=C/C(c1ccccc1)c1ccccc1)c1ccccc1F,"inconclusive: 35.5 µM [inhibitor, single point]",–
O=C(CSc1cn(CC(=O)N2CCOCC2)c2ccccc12)Nc1ccccc1F,–,inactive: 18.4% [at 46.1 µM]
Cc1ccc(S(=O)(=O)Nc2ccc3c(c2)CCCN3C(=O)c2cccs2)cc1,"inconclusive: 0.316 µM [activator, full curve, poor fit]",–
Cc1oc(-c2ccc(Cl)cc2)nc1CN1CCC(C(=O)NCC2CCCO2)CC1 (stereo not given),–,inactive: 7.25% [at 46.1 µM]
CCOC(=O)NC1(Nc2ccc(C)cc2)Oc2ccccc2O1,"inconclusive: 35.5 µM [inhibitor, single point]",–
COc1ccccc1C(CNC(=O)c1cccc(S(=O)(=O)Nc2ccc(C)cc2)c1)N(C)C (stereo not given),–,inactive: -16.4%
COc1ccc(NS(=O)(=O)c2cc(NC(=O)CCSc3ccccc3)ccc2OC)cc1,"inconclusive: 10 µM [inhibitor, partial curve, poor fit]",–
CC(=O)c1c(C)[nH]c(C(=O)Nc2ccc(C)c(S(=O)(=O)N(C)C)c2)c1C,–,inactive: -22.4%
COc1ccc(CCNC(=O)CSc2cn(Cc3ccccc3)c3ccccc23)cc1OC,–,inactive: -11.6%
O=C(CN1CCCCCC1)NN(Cc1ccccc1)c1ccccc1,"inconclusive: 7.94 µM [activator, partial curve, poor fit]",–
COc1cc(CNC(C)c2ccccc2)cc(Br)c1OCc1ccccc1 (stereo not given),"inconclusive: 22.4 µM [inhibitor, single point]",–
O=c1c(-c2cccc(Cl)c2)c[nH]n1-c1ccccc1,–,inactive: -0.387%
O=C(C/C=N\OCc1ccc([N+](=O)[O-])cc1)Nc1ccc(Br)cc1,–,inactive: -2.66% [at 46.1 µM]
O=C(NCc1cccnc1)/C(=C/c1ccc(-c2cccc(C(F)(F)F)c2)o1)NC(=O)c1ccccc1,"inconclusive: 12.6 µM [inhibitor, single point]",–
CC(=O)C12CCCCC1CC1[C@@H]3CC(C)C4=CC(=O)CC[C@]4(C)C3CC[C@@]12C (stereo not given in full),–,inactive: 27.8% [at 46.1 µM]
CCCC(=O)N1c2ccc(-c3csc(N)n3)cc2CC1C (stereo not given),"inconclusive: 3.16 µM [inhibitor, full curve, poor fit]",–
COc1ccc(C2(C)NC(=O)N(CC(=O)Nc3ccc(Br)cc3F)C2=O)cc1OC (stereo not given),–,inactive: -7.24% [at 46.1 µM]
CCOc1cc(Br)ccc1S(=O)(=O)N1CCC(C(N)=O)CC1,–,inactive: -22%
Cc1ccc(NC(=O)COC(=O)Cc2c[nH]c3ccccc23)cc1F,–,inactive: 7.05%
Cc1ccc(COc2ccc(C)nc2[N+](=O)[O-])cc1,"inconclusive: 35.5 µM [inhibitor, single point]",–
COc1cc2oc3ccccc3c2cc1N(CC(=O)N(C)C)S(=O)(=O)c1ccccc1,"inconclusive: 35.5 µM [inhibitor, single point]",–
Cc1ccc(Sc2ncccc2/C=N/O)cc1,–,inactive: 13.1% [at 46.1 µM]

Compound,Potency,"activity change, negative = inhibition"
COc1ccc(-n2c(COc3cccc4ccccc34)nnc2SC(C)C(=O)O)cc1 (stereo not given),–,inactive: 10.8%
CCc1ccc(OCc2ccc(C(=O)O)o2)cc1,"inconclusive: 11.2 µM [inhibitor, single point]",–
COc1ccc(-c2nn(-c3ccccc3)cc2/C=N/Nc2ccc3ccccc3n2)cc1OC,"inconclusive: 13 µM [inhibitor, partial curve, poor fit]",–
CCn1c(O)c(N=NC(=O)CNc2ccc(C)cc2)c2ccccc21,"inconclusive: 14.6 µM [inhibitor, partial curve, poor fit]",–
COc1ccc(OC)c(-c2csc(N(Cc3ccco3)C(=O)c3cccs3)n2)c1,–,inactive: 5.55%
Cc1nn(-c2ccc(F)cc2)c(Cl)c1/C=N/NC(=O)c1cccs1,–,inactive: -17.5%
Cn1c(SCc2cccc(Br)c2)nnc1-c1ccccn1,–,inactive: 11.4%
COc1ccc(OCc2cccc(C(=O)Nc3cc(C)on3)c2)cc1,"inconclusive: 11.6 µM [inhibitor, partial curve, poor fit]",–
COc1ccc(-c2nsc(C(=O)N(c3ccc(F)cc3)C(C(=O)NC3CCCC3)c3ccc(OC)cc3)c2N)cc1 (stereo not given),–,inactive: 1.16%
COc1cc(CC(=O)Nc2sc3c(c2C(N)=O)CCCC3)cc(OC)c1OC,"inconclusive: 25.1 µM [inhibitor, single point]",–
COc1ccc(CNC(=O)CN(Cc2ccc(Cl)cc2)C(=O)c2csnn2)cc1,"inconclusive: 12.6 µM [inhibitor, single point]",–
CCc1ccc(CNc2ncnc3c2nc2n3CCCC2)cc1,–,inactive: 4.48% [at 46.1 µM]
CCc1cccc(NC(=O)Cn2c(=O)ccc3cc(S(=O)(=O)N4CCC(C)CC4)ccc32)c1,"inconclusive: 35.5 µM [inhibitor, single point]",–
CCOc1ccccc1N1CC(c2nc3ccccc3n2CCOc2ccccc2)CC1=O (stereo not given),"inconclusive: 1.78 µM [inhibitor, single point]",–
N#Cc1ccc(OCC(=O)N/N=C2/CC(c3ccccc3)Oc3ccccc32)cc1 (stereo not given),"inconclusive: 22.4 µM [inhibitor, partial curve, poor fit]",–
Cc1nc2ccccc2c(=O)n1NCc1cccs1,"inconclusive: 32.6 µM [activator, single point]",–
O=C(COC(=O)/C=C/c1ccc(OC(F)F)cc1)NCc1cccs1,"inconclusive: 22.4 µM [inhibitor, single point]",–
O=C(c1ccc2c(c1)N(Cc1ccc(Cl)cc1)C(=O)c1ccccc1S2=O)N1CCOCC1 (stereo not given),–,inactive: -9.32% [at 46.1 µM]
O=C(NC(N1CCOCC1)C(Cl)(Cl)Cl)c1ccc(Br)cc1 (stereo not given),"inconclusive: 20 µM [inhibitor, single point]",–
CCCOc1ccc(C(O)(CCC)CCN2CCCCC2)cc1 (stereo not given),"inconclusive: 10 µM [inhibitor, partial curve]",–
CC(C)=CC(=O)OCC(=O)Nc1ccc(Cl)cc1,–,inactive: -12.3% [at 46.1 µM]
CC(C)(C)OC(=O)CN1C(=O)C(Sc2n[nH]c(-c3ccccc3)n2)CCc2ccccc21 (stereo not given),"inconclusive: 0.0052 µM [activator, full curve, poor fit]",–

# A few values from the results shown.
# Potency with `CCc1cccc(NC(=O)Cn2c(=O)ccc3cc(S(=O)(=O)N4CCC(C)CC4)ccc32)c1` reads inconclusive: 35.5 µM [inhibitor, single point]
# Potency with `CCCOc1ccc(C(O)(CCC)CCN2CCCCC2)cc1` (stereo not given) reads inconclusive: 10 µM [inhibitor, partial curve]
# activity change, negative = inhibition with `O=C(c1ccc2c(c1)N(Cc1ccc(Cl)cc1)C(=O)c1ccccc1S2=O)N1CCOCC1` (stereo not given) reads inactive: -9.32% [at 46.1 µM]
# Potency with `O=C(COC(=O)/C=C/c1ccc(OC(F)F)cc1)NCc1cccs1` reads inconclusive: 22.4 µM [inhibitor, single point]
# activity change, negative = inhibition with `Cc1nn(-c2ccc(F)cc2)c(Cl)c1/C=N/NC(=O)c1cccs1` reads inactive: -17.5%
